Measured values from the supplement of paper PMC10338343.
± gives the standard deviation. The list shows a part of the results, in another mix than the full data. The uncertainty is large for many entries.

test system: MILI (PIWIL2) piRISC loaded with L1MC piRNA (26 nt); experiment: pre-steady-state target cleavage rate (min^-1); MIWI and MILI are mouse PIWI proteins and EfPiwi is from a freshwater sponge; tags in brackets are library labels; higher = faster piRNA-guided slicing of the target; details: guide: L1MC piRNA 5'p-UAACUAAAUACUAUGCAAGCUGUAGG; auxiliary factor: none (no GTSF1)
Method in brief: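 For Cleave-'n-Seq, a transcribed, DNA-blocked target RNA library […] met 1 nM active affinity-purified piRISC with one synthetic guide at 33 °C for 0–8 or 0–960 min in HEPES–potassium acetate buffer, with or without 500 nM GTSF1 partner protein. Uncleaved targets were sequenced and normalised to depth and weakly complementary targets, with three trials pooled and k3 capped at 0.0001 min^-1. A burst-and-steady-state fit supplied the pre-steady-state cleavage rate.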
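Note: 1 nM active piRISC with 0.1 nM target library at 33 °C single turnover.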

Sequence | pre-steady-state target cleavage rate
UCCUGGUACUGCUUGCAUAGUAUUUAGAAA | 0.00126 ± 0.0046
UCCUGGAACAGCUUGCAUAGUAUUUACAAA | 0.0014 ± 0.005
UCCUGGAUCACCUUGCAUAGUAUUUUGUUA | 0.00149 ± 0.005
UCCUGCUACAGCUUGGAUAGUAUUUACUUA | 0.000205 ± 0.014
UCCUGGAUCAGCUUGCAAAGUAUUUACAAA | 0.00112 ± 0.0066
UCCUGGAACAGCUUGCAAUAGUAUUUAGUUA | 0.00204 ± 0.0032
UCCUGGAACAGCAUGCAUAGUAUUUUGUUA | 0.00229 ± 0.003
UCCUGGUACAGCUUGCAUAGUAUAUAGAUA | 0.00221 ± 0.0036
UCCUGGAUGUCGAACGUAUCUAAUUUGUUA | 0.000176 ± 0.016
UCCUGGAUGAGCUAGCAUAGUAUUUACUUA | 0.00208 ± 0.0039
UCCUGGAUGAGCUUGCAUAGUUUAUAGUUA | 0.00143 ± 0.0049
UCCUGCUACAGCUUGCAUAGUAUUUUGAUA | 0.00109 ± 0.0056
UCCUGGUACAGCUUGCAUAGUAAAAUCAAA | 0.00116 ± 0.0055
UCCUGGAUGAGCUUGCAUAGUAUUUACUUA | 0.00173 ± 0.0033
UCCUGGAUGUGCUUGCAAAGUAUUUAGAAA | 0.00148 ± 0.0037
UCCUGGAUGAGCUUGCAAAGUAUUUAGAUA | 0.00124 ± 0.0055
UCCUGGAUGAGCUUGCAUAGUAUAAAGUUA | 0.00273 ± 0.0029
UCCUGCUACAGCUUGCAUAGUAUAUAGUAA | 0.00109 ± 0.0048
UCCUGGAACAGCUUGCAUAGUAUAAUCAAA | 0.00145 ± 0.0046
UCCUGGUACAGCUAGCAUAGUAUUUACUUA | 0.00162 ± 0.0042
UCCUGGAUGAGCUUGCAUAGUAUAUAGAUA | 0.00127 ± 0.0063
UCCUGCUACAGCUUGCAUACUAUUUAGAUA | 0.00128 ± 0.0045
UCCUCCUACAGCUUCCAUAGUAUUUAGUUA | 0.00122 ± 0.0049
UCCUGGUACAGCUUGCAAAGUAUUUAGAUA | 0.00228 ± 0.0031

2 records drawn at random from those above:
Sequence | pre-steady-state target cleavage rate
UCCUGCUACAGCUUGCAUACUAUUUAGAUA | 0.00128 ± 0.0045
UCCUGGAUCACCUUGCAUAGUAUUUUGUUA | 0.00149 ± 0.005
